Reference: article PMC7982613
Results are given in words; binding and its absence hold for the method and conditions named. In cells and extracts the contact can be indirect. Some entries that bind do so weakly or less than the wild type.

Sequences of proteins named here, by UniProt entry; tags and fusion partners are left off.
UniProt O43524: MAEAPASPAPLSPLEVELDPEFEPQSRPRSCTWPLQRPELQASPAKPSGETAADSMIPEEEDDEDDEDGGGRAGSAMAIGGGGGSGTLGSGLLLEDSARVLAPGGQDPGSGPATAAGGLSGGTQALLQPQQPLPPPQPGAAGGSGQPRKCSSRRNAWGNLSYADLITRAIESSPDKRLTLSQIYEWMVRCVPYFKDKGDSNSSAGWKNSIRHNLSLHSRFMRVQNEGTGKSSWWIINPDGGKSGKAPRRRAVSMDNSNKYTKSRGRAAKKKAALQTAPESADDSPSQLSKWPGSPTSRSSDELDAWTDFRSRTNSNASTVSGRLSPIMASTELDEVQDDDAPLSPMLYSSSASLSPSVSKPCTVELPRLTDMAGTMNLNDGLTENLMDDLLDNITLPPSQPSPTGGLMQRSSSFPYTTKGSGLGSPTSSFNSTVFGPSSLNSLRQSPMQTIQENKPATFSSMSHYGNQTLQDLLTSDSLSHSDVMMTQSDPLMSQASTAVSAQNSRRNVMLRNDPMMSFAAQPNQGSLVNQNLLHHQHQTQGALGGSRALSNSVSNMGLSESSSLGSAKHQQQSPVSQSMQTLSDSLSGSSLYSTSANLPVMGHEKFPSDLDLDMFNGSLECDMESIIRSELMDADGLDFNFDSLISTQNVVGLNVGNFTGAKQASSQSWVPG
UniProt P84022: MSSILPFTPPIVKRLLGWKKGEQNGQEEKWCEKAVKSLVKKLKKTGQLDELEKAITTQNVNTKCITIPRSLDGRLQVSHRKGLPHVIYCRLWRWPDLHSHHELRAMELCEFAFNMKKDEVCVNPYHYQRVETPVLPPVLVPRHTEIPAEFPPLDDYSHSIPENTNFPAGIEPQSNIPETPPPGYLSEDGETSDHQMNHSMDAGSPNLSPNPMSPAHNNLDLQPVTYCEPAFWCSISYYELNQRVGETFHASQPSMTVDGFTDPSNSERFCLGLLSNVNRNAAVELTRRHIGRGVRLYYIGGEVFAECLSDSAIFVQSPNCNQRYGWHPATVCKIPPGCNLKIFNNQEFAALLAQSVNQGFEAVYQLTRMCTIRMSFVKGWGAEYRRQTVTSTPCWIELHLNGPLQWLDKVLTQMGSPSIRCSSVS

Columns and labels:
[1] = target: FoxO3 (human (endogenous in PC-3)) (UniProt O43524); assay: co-IP; PC-3 cell lysates with smad3 or FoxO3 antibody overnight at 4°C, protein A/G magnetic beads 2 h at 4°C, Western blotting; cells treated with lmwCAFS, MT-lmwCAFS, MT-lmwCAFS with TGF-β3 immune depletion, or TGFBR2 knockdown and MT-lmwCAFS
[2] = target: smad3 (human (endogenous in PC-3)), P84022; assay: as above; conditions: remark: other sources report otherwise

binding [1] | binding [2] | Molecule
binds | – | smad3 (from UniProt P84022 1-425)
binds | – | smad4 (from UniProt Q13485 1-552)
– | binds | smad4, Q13485 1-552 (protein) MDNMSITNTPTSNDACLSIVHSLMCHRQGGESETFAKRAIESLVKKLKEKKDELDSLITAITTNGAHPSKCVTIQRTLDGRLQVAGRKGFPHVIYARLWRWPDLHKNELKHVKYCQYAFDLKCDSVCVNPYHYERVVSPGIDLSGLTLQSNAPSSMMVKDEYVHDFEGQPSLSTEGHSIQTIQHPPSNRASTETYSTPALLAPSESNATSTANFPNIPVASTSQPASILGGSHSEGLLQIASGPQPGQQQNGFTGQPATYHHNSTTTWTGSRTAPYTPNLPHHQNGHLQHHPPMPPHPGHYWPVHNELAFQPPISNHPAPEYWCSIAYFEMDVQVGETFKVPSSCPIVTVDGYVDPSGGDRFCLGQLSNVHRTEAIERARLHIGKGVQLECKGEGDVWVRCLSDHAVFVQSYYLDREAGRAPGDAVHKIYPSAYIKVFDLRQCHRQMQQQAATAQAAAAAQAAAVAGNIPGPGSVGGIAPAISLSAAAGIGVDDLRRLCILRMSFVKGWGPDYPRQSIKETPCWIEIHLHRALQLLDEVLHTMPIADPQPLD
